In article PMC6199744, “Development of Chemical Proteomics for the Folateome and Analysis of the Kinetoplastid Folateome” (ACS Infectious Diseases, 2018):
Read-outs that look alike come from different tables or passages of the source. The source gives many values for each of these; only a part stands here.

Tested on: T. brucei lysate proteins
Format: binding, Trypanosoma brucei
Conditions: vs vehicle control

## CCCCCCOc1ccc(Cc2cnc(N)nc2N)cc1 [compound 1]
Protein TB11.01.3180 GUANINE NUCLEOTIDE-BINDING PROTEIN BETA SUBUNIT-LIKE PROTEIN
  fold change: 0.95
Protein TB11.01.5860 T-COMPLEX PROTEIN 1, EPSILON SUBUNIT, PUTATIVE
  fold change: 0.83
Protein TB11.01.5910 DYNEIN IN[…] IC70, PUTATIVE
  fold change: 0.98
Protein TB11.01.8740 PROTEIN PHOSPHATASE 4, PUTATIVE
  fold change: 0.87
Protein TB11.02.1220 […] SUBUNIT 2
  fold change: 0.81
Protein TB11.02.4360 40S RIBOSOMAL PROTEIN S21, PUTATIVE
  fold change: 1.28
Protein TB427TMP.01.1540 HY[…], CONSERVED
  fold change: 0.99
Protein TB427TMP.01.5000 HY[…], CONSERVED
  fold change: 0.93
Protein TB427TMP.01.8470 DIHYDROLIPOYL DEHYDROGENASE
  fold change: 0.71
Protein TB427TMP.01.8510 T-COMPLEX PROTEIN 1, ALPHA SUBUNIT, PUTATIVE
  fold change: 0.96
Protein TB427TMP.01.8570 DYNEIN LIGHT IN[…] D1BLIC, PUTATIVE
  fold change: 0.97
Protein TB427TMP.02.1070 AMINOPEPTIDASE, PUTATIVE
  fold change: 1.39
Protein TB427TMP.02.5620 Tb427tmp.02.5620
  fold change: 0.92
Protein TB427TMP.02.5720 RIBONUCLEOSIDE-DIPHOSPHATE REDUCTASE LARGE CHAIN
  fold change: 0.92
Protein TB427TMP.03.0150 HY[…], CONSERVED
  fold change: 1
Protein TB427TMP.160.2220 HY[…], CONSERVED
  fold change: 0.94
Protein TB427TMP.160.4240 […] PROTEIN-LIKE PROTEIN
  fold change: 0.85
Protein TB427TMP.160.4760 HY[…]
  fold change: 0.89
Protein TB427TMP.211.2730 GIM5A PROTEIN
  fold change: 0.95
Protein TB427TMP.211.4170 HY[…], CONSERVED
  fold change: 0.88
Protein TB427.03.1790 PYRUVATE DEHYDROGENASE E1 BETA SUBUNIT, PUTATIVE
  fold change: 0.68
Protein TB427.04.1080 V-TYPE ATPASE, A SUBUNIT, PUTATIVE
  fold change: 0.87
Protein TB427.05.4460 MAJOR VAULT PROTEIN, PUTATIVE
  fold change: 1.1
Protein TB427.06.1070 HY[…], CONSERVED
  fold change: 0.93
Protein TB427.06.1500 ALKYL-DIHYDR[…] SYNTHASE
  fold change: 0.92
Protein TB427.06.2250 RAC SERINE-THREONINE KINASE, PUTATIVE
  fold change: 0.9
Protein TB427.06.3050 ALDEHYDE DEH[…], PUTATIVE
  fold change: 0.9
Protein TB427.06.3500 ENDOSOMAL T[…] RME-8, PUTATIVE
  fold change: 0.96
Protein TB427.06.3630 SPHINGOSINE 1-PHOSPHATE LYASE, PUTATIVE
  fold change: 0.96
Protein TB427.06.4770 HY[…], CONSERVED
  fold change: 0.98
Protein TB427.07.1770 HY[…], CONSERVED
  fold change: 1.41
Protein TB427.07.2560 HY[…], CONSERVED
  fold change: 0.95
Protein TB427.07.3370 HY[…], CONSERVED
  fold change: 0.9
Protein TB427.07.5750 HY[…], CONSERVED
  fold change: 1.28
Protein TB427.08.3530 GLYCEROL-3-PHOSPHATE DEH[…]+], GLYCOSOMAL
  fold change: 1
Protein TB427.08.3660 PROTEIN TRANSPORT PROTEIN SEC23
  fold change: 0.86
Protein TB427.08.550 PEPTIDE […] REDUCTASE, PUTATIVE
  fold change: 0.77
Protein TB427.10.1170 INTR[…] PROTEIN IFT172, PUTATIVE
  fold change: 0.88
Protein TB427.10.13660 HY[…], CONSERVED
  fold change: 0.91
Protein TB427.10.14890 C-TERMINAL MOTOR KINESIN, PUTATIVE
  fold change: 0.92
Protein TB427.10.14950 RNA BINDING PROTEIN, PUTATIVE
  fold change: 0.87
Protein TB427.10.1510 NOT1
  fold change: 0.97
Protein TB427.10.7740 PROTEIN TRANSPORT PROTEIN SEC23
  fold change: 1
Protein TB427.10.8190 T-COMPLEX PROTEIN 1, THETA SUBUNIT, PUTATIVE
  fold change: 0.96
Protein TB927.10.12700 PYRUVATE DEHYDROGENASE E1 ALPHA SUBUNIT, PUTATIVE
  fold change: 0.79
Protein TB927.10.12940 HY[…], CONSERVED
  fold change: 1
Protein TB927.10.2100 […] 1-ALPHA
  fold change: 0.89
Protein TB927.10.8160 HY[…], CONSERVED
  fold change: 0.76
Protein TB927.2.2770 HY[…] TB927 2 2770
  fold change: 0.91
Protein TB927.2.4930 ESTERASE, PUTATIVE
  fold change: 0.92
Protein TB927.3.1370 RIBOSOMAL PROTEIN S25, PUTATIVE
  fold change: 1.38
Protein TB927.3.3270 ATP-DEPENDENT PHOSPHOFRUCTOKINASE
  fold change: 0.91
Protein TB927.4.3820 HY[…], CONSERVED
  fold change: 0.96
Protein TB927.5.960 HY[…], CONSERVED
  fold change: 0.93
Protein TB927.6.1020 CYSTEINE PEPTIDASE PRECURSOR
  fold change: 0.91
Protein TB927.6.3740 HEAT SHOCK 70 KDA PROTEIN, MIT[…], PUTATIVE
  fold change: 0.95
Protein TB927.6.560 CYSTEINE PEPTIDASE C (CPC)
  fold change: 0.89
Protein TB927.7.2140 HY[…]
  fold change: 0.87
Protein TB927.7.2750 PROTEIN KINASE, PUTATIVE
  fold change: 0.74
Protein TB927.8.4610 SMALL GTP-BINDING PROTEIN RAB1
  fold change: 0.83
